In PubChem BioAssay AID540275 (National Center for Advancing Translational Sciences (NCATS), 2011):
Among all 320,000 compounds or so, about 620 (0.19%) were called active. This list was built around the results that the source calls inconclusive (neither active nor inactive); the mix of calls is not that of the screen. Cut-off read from the data, not from the text of the source: active = activation above about 80%; inconclusive = between about 30% and that limit; inactive = weaker than that.

Chains of the proteins cited; added tags and fusions are not shown.
UniProt Q8NER1, whole entry, looked up: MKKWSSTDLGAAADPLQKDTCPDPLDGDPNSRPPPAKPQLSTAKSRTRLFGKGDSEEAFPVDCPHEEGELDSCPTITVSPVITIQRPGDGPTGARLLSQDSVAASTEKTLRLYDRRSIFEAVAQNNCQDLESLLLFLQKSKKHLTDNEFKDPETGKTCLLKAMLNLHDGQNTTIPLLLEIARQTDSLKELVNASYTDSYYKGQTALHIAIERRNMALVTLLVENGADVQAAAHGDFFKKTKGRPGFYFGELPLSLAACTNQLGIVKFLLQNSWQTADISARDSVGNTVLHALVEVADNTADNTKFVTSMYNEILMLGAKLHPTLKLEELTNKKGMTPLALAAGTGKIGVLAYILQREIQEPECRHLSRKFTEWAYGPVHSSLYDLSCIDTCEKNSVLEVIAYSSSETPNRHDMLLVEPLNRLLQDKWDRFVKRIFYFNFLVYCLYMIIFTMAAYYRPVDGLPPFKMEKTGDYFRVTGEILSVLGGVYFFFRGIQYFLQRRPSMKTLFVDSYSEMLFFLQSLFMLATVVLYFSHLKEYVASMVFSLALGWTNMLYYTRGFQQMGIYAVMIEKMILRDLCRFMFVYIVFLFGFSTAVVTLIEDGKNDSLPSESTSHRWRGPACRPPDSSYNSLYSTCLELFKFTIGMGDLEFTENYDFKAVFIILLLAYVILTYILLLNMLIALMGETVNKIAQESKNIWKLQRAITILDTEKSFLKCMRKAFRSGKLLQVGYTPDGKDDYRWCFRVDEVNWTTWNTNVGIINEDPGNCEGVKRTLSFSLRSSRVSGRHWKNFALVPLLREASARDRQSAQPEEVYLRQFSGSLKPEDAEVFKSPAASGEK

biological target: Transient receptor potential cation channel subfamily V member 1 (Homo sapiens) (UniProt Q8NER1); assay: HTS Assay for Compounds that Act as Agonists of the Vanilloid Receptor 1; conditions: TRPV1-expressing cells, Fluo-8 calcium influx, agonist mode; at 8.33 µM, active compounds read high; note: 0% is about no effect
Summary of the method: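 Cells expressing TRPV1 were dye-loaded with Fluo-8 and read kinetically: 10 s baseline, 3 min after compound (agonist portion), then 2 min after EC20 capsaicin (allosteric enhancer portion). Calcium-bound dye fluorescence at 480/520 nm.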

| SMILES | activation |
| --- | --- |
| CC1CC(C)CN(c2ccc(C(=O)NCc3ccc4c(c3)OCO4)cc2[N+](=O)[O-])C1 (stereo not drawn) | inconclusive: 36.4% |
| CCNC(=O)COC(=O)c1ccc(S(=O)(=O)N2CCCCCC2)cc1 | inactive: 3.09% |
| Cc1ccc(NC(=O)CCc2ccc(C)o2)cc1 | inconclusive: 36.8% |
| C/C(=C\C(=O)c1ccc(Br)cc1)NCc1ccc(C)cc1 | inactive: -0.586% |
| CC(=O)c1cc2c(O)c(O)ccc2o1 | inactive: -2.59% |
| Cc1ccc(NC(=O)CSc2nnc(/N=C/N(C)C)s2)cc1 | inconclusive: 32.7% |
| Cc1ccc2c(c1)N(C(=O)CCC(=O)NCCCN1CCC(Cc3ccccc3)CC1)CCO2 | inactive: 6.61% |
| COc1cc(/C=N/NC(=O)c2nnn(-c3nonc3N)c2C(C)C)ccc1O | inconclusive: 30.7% |
| COc1ccc(/C=C2\SC(=S)N(c3cccnc3)C2=O)cc1 | inactive: 1.55% |
| O=S(=O)(Nc1c(Br)cc(Br)c2cccnc12)C1CC1 | inactive: -6.72% |
| COc1ccc(C(=O)N/N=C/c2ccccn2)cc1OC | inactive: -0.776% |
| CCCc1nn(-c2cc(Cl)ccc2OC)c2c1C(=O)CC(C)(C)C2 | inconclusive: 40.3% |
| C=CCn1c(SCc2cccc(F)c2)nc2cc(C(=O)N3CCC(C(N)=O)CC3)ccc2c1=O | inconclusive: 56.4% |
| CC(=O)c1ccc(OCc2cc([N+](=O)[O-])cc3c2OCOC3)cc1 | inconclusive: 38.9% |
| CC(C)c1ccc(OCc2nnc(SCC(=O)N3CCCCC3)o2)cc1 | inconclusive: 45% |
| CCCCc1ccc(NS(=O)(=O)c2cccs2)cc1 | inconclusive: 38.3% |
| CCOc1cc(C(c2c(C)[nH][nH]c2=O)c2c(C)[nH][nH]c2=O)ccc1OC(=O)c1cccc([N+](=O)[O-])c1 | inactive: 3.55% |
| CC(=O)c1cc(F)c(N2CCN(C(=O)COc3ccccc3F)CC2)cc1C | inconclusive: 45.3% |
| O=C(/C=C/c1ccc2c(c1)OCO2)NCc1ccc(F)cc1 | inconclusive: 34.3% |
| CCOC(=O)/C(C#N)=C1/C=CN(Cc2ccccc2)C=N1 | inactive: 2.74% |
| CCNC(=S)NNC(=O)c1cc(-c2ccccc2C)nc2ccccc12 | inconclusive: 32.2% |
| O=C(Nc1ccncc1)Nc1cccc(Cl)c1 | inconclusive: 67.5% |
| Cc1cccc(NC(=O)Nc2cnccn2)c1C | inactive: 8.51% |
| O=C(Cc1ccc(F)cc1)Nc1nc(-c2ccc(F)c(F)c2)cs1 | inconclusive: 57.8% |

| SMILES | activation |
| --- | --- |
| CCOC(=O)c1c(-n2cccc2)sc2c1CCCC2=O | inconclusive: 32.1% |
| COc1cccc(CN(C)CC(=O)Nc2ccccc2C(=O)Nc2ccccc2)c1OC | inconclusive: 51.1% |
| Cc1cccc(C)c1NC(=S)NC1CCCCC1 | inconclusive: 36.4% |
| O=C(c1noc2c1CCc1ccccc1-2)N1CCOCC1 | inconclusive: 57% |
| CC(C)c1nc2ccc(Br)cn2c1NC1CCCC1 | inconclusive: 31.2% |
| O=C(NNC(=O)c1ccccc1C(=O)O)c1ccc(O)cc1 | inconclusive: 69.6% |
| O=C(Nc1nc2cc3c(cc2s1)OCCO3)C1=COCCO1 | inconclusive: 39.7% |
| COC(=O)c1ccc(N=Nc2c(C)[nH]n(-c3ccccc3)c2=O)cc1 | inactive: 2.63% |
| CCCCCN=Cc1c(C)[nH]n(-c2nc3ccccc3s2)c1=O | inactive: 7.8% |
| CSCCNC(=O)c1ccc2nc(Cc3ccccc3F)oc2c1 | inconclusive: 58.5% |
| CC(C)(C)OC(=O)N[C@@H](C(=O)OC(C)(C)C)c1ccccc1 | inconclusive: 36.3% |
| CC(NC(=O)Nc1cccc([N+](=O)[O-])c1)(C(F)(F)F)C(F)(F)F | inconclusive: 78.8% |
| O=C(CN(c1ccc(F)cc1)S(=O)(=O)c1ccccc1)NCCSC1CCCCC1 | inconclusive: 46.4% |
| CCc1cccc(NC(=O)Cc2ccc([N+](=O)[O-])cc2)c1 | inconclusive: 33.8% |
| Cc1ccnc(N/C=C/C(=O)c2ccc(Br)cc2)c1 | inactive: 5.81% |
| CC(=O)c1ccc(NC(=O)c2ccc3snnc3c2)cc1 | inconclusive: 61.2% |
| COc1ccc(/C=C/C(=O)Nc2cccc(C(C)=O)c2)cc1 | inconclusive: 71.7% |
| Cc1ccc(C(=O)OCC(=O)NCc2cccs2)c(C)c1 | inconclusive: 37.9% |
| CC(=O)/C(=N\Nc1ccc(Cl)cc1)Sc1nnc(-c2ccccc2)n1-c1ccccc1 | inconclusive: 57.1% |
| CC(=O)c1ccc(NC(=O)C(C)Sc2nnc(C3CCCCC3)o2)cc1 (stereo not drawn) | inconclusive: 63.5% |
| O=C(COC(=O)CSc1ccc2ccccc2c1)NCc1ccc2c(c1)OCO2 | inconclusive: 30.2% |
| COc1cccc(NC(=O)/C=C/c2ccco2)c1 | inconclusive: 38.3% |
| COc1ccccc1N1CCN(C(=O)C(=O)c2c(C)[nH]c3ccccc23)CC1 | inactive: 0.856% |
| CC1(C)C(=O)C2(CCCCC2)C(=O)OC1C(=O)c1ccccc1 (stereo not drawn) | inconclusive: 30.6% |

| SMILES | activation |
| --- | --- |
| O=C(NCCNC(=O)c1cc(OCC(F)(F)F)ccc1OCC(F)(F)F)Nc1ccccc1 | inconclusive: 43% |
| C=CCNC(=S)Nc1sc2c(c1C(=O)OCC)CC(C(C)C)OC2 (stereo not drawn) | inactive: 13% |
| CC1CCCCC1NC(=O)c1cn(C)c2ccc(S(=O)(=O)N3CCCC3)cc2c1=O (stereo not drawn) | inconclusive: 52.9% |
| Nn1c(N2CCCCC2)nc2ccccc21 | inactive: -2.06% |
| COc1ccc(C(=O)N/N=C/c2sc(N3CCOCC3)nc2-c2ccccc2)cc1OC | inactive: -1.77% |
| O=c1c(/C=N/OCc2ccc(Cl)cc2Cl)c[nH]n1-c1cccc(Cl)n1 | inactive: -7.83% |
| COc1ccc(-c2cc(C(=O)N3CCCC3)no2)cc1 | inconclusive: 41.2% |
| Cc1ccccc1-n1ncc2c1CC(C)(C)CC2NC(=O)CSc1ccncc1 (stereo not drawn) | inconclusive: 61.7% |
| O=C(c1ccco1)N1CCN(c2ccc([N+](=O)[O-])cc2F)CC1 | inconclusive: 61.5% |
| Cc1cc(NC(=O)/C=C/c2ccccc2Cl)n(-c2nc3ccccc3[nH]2)n1 | inconclusive: 37.3% |
| CC(C)(C)c1csc(NC(=O)Nc2ccccc2)n1 | inconclusive: 41.4% |
| CCOC(=O)N1CCN(S(=O)(=O)c2ccc(C(=O)NNc3nc4ccc(Cl)cc4s3)cc2)CC1 | inactive: 15% |
| O=C(NNC(=S)Nc1ccccc1)c1cccnc1 | inactive: -2.93% |
| COc1ccc(CNC(=S)NCc2ccc(OC)cc2)cc1 | inconclusive: 67.4% |
| COC(=O)c1cc(-c2ccc(OC)cc2)on1 | inconclusive: 31.3% |
| CC1CCC(NC(=O)c2cc3c(s2)CCCC3)CC1 (stereo not drawn) | inconclusive: 72.5% |
| O=C(CSCc1cccc(Cl)c1)NCc1ccc2c(c1)OCO2 | inconclusive: 32.5% |
| O=C(NCCc1ccccc1)c1noc2c1CCCCC2 | inconclusive: 42.5% |
| C=CCn1c(=O)/c(=C/c2ccc(C)o2)s/c1=C(/C#N)C(=O)c1ccccc1 | inactive: 13.9% |
| c1coc(CSc2ncnc3c2oc2ccccc23)c1 | inconclusive: 40.3% |
| O=C(/C=C/c1cccs1)c1ccc(N2CCOCC2)cc1 | inactive: 23% |
| Cc1ccc(C(=O)N2CCN(c3ccccc3)CC2)cc1C | inconclusive: 32.8% |
| CC(=O)Cn1cnc2c(cnn2-c2ccc(C)c(C)c2)c1=O | inconclusive: 37.8% |
| O=C(COc1ccccc1)NCc1nnc2c3ccccc3c(-c3ccccc3)nn12 | inconclusive: 30.7% |

Of the compounds above, 6 have an NH in an aromatic ring:

| SMILES | activation |
| --- | --- |
| CCOc1cc(C(c2c(C)[nH][nH]c2=O)c2c(C)[nH][nH]c2=O)ccc1OC(=O)c1cccc([N+](=O)[O-])c1 | inactive: 3.55% |
| COC(=O)c1ccc(N=Nc2c(C)[nH]n(-c3ccccc3)c2=O)cc1 | inactive: 2.63% |
| CCCCCN=Cc1c(C)[nH]n(-c2nc3ccccc3s2)c1=O | inactive: 7.8% |
| COc1ccccc1N1CCN(C(=O)C(=O)c2c(C)[nH]c3ccccc23)CC1 | inactive: 0.856% |
| O=c1c(/C=N/OCc2ccc(Cl)cc2Cl)c[nH]n1-c1cccc(Cl)n1 | inactive: -7.83% |
| Cc1cc(NC(=O)/C=C/c2ccccc2Cl)n(-c2nc3ccccc3[nH]2)n1 | inconclusive: 37.3% |

More entries.

| SMILES | activation |
| --- | --- |
| Cc1ccc(C(=O)NCCOc2ccc(Cl)cc2)cc1 | inconclusive: 58.6% |
| O=C(CN1CCN(Cc2ccc(F)cc2Cl)CC1)NCc1ccccc1 | inconclusive: 68.6% |
| COc1ccc(C(=O)Cn2nnc(-c3cccs3)n2)cc1 | inconclusive: 30.5% |
| Cc1cc(C(=O)Nc2cc(C)n(Cc3ccc(Cl)cc3)n2)no1 | inconclusive: 32.2% |
| COc1ccc2c(c1)-c1c(ssc1=S)C(C)(C)N2C(=O)CSC1=NCCS1 | inactive: 9.26% |
| C=CCN(CC=C)c1cnn(-c2nc3ccccc3[nH]2)c(=O)c1Cl | inactive: -2.77% |
| Cc1nn(-c2ccccc2)cc1C(=S)Nc1ccccc1 | inconclusive: 37.1% |
| COC(=O)[C@]1(C)CCC[C@@]2(C)C3CC[C@]4(OC(C)=O)C[C@@]3(CCC21)CC4=NO (stereo partly drawn) | inactive: 19.3% |
| Cn1ncc2c(Nc3ccc4ccccc4c3)ncnc21 | inconclusive: 67.6% |
| CCc1cccc(C)c1NC(=S)N(CCN(C)C)Cc1cccs1 | inactive: 1.15% |
| CC(C)Oc1ccc(C(=O)Nc2nnc(SCC(=O)N3CCOCC3)s2)cc1 | inactive: -2.07% |
| CCOc1ccc(CNC(=O)CCCc2cn(C)c3ccccc23)cc1OC | inconclusive: 77% |
| COc1ccc(NC2CCCN(C(=O)CCc3cccc(Cl)c3)C2)cc1 (stereo not drawn) | inconclusive: 73.7% |
| Cc1ccc(SCCC(=O)NCCSCc2ccccc2C)cc1 | inconclusive: 39.6% |
| COc1ccc(NC(=O)n2ncc3c(C)cccc32)cc1 | inconclusive: 38% |
| CC(C)c1ccc2c(c1)C(c1ccc(N3CCOCC3)cc1)=NNC(c1cccs1)=N2 | inconclusive: 55% |
| CNC(=O)N1CCC(C(=O)c2c(C)c(C)c(C)c(C)c2C)CC1 | inconclusive: 59.3% |
| Cc1cccc(CSCC(=O)NCc2ccc(S(N)(=O)=O)cc2)c1 | inconclusive: 44% |
| CCOc1ccc(NC(=O)CN(C)C(=O)c2ccncc2)cc1OCC | inactive: 0.337% |
| C/C=C(/C)C(=O)OC1c2c(ccc3ccc(=O)oc23)OC(C)(C)C1OC(C)=O (stereo not drawn) | inactive: 27.6% |
| COc1ccc(NC(=O)c2nc(C)c(C3(C)CC(c4cccnc4)=NO3)s2)cc1 (stereo not drawn) | inactive: 4.99% |
